Our source for the maximal number values is the supplement of paper PMC9549374.

Some of the results follow. No stated cut-off is given here; in the data, active = 2-fold of DMSO or more and inactive = the rest. Single values of this set are uncertain. Some low values are a fixed figure set by the source, not a measured ratio.

This assay concerns CM7/1-hgem mouse ES cell-derived cardiomyocytes. Kind of assay: maximal number of mAG-hGem(1/110)-positive cardiomyocytes over 96 h, fold-change vs DMSO; higher = more cardiomyocyte cell cycle activity. To be noted: 1 µM; 96 (max over 12 h time points) h.
With `COc1cc(C(=O)OCCCN2CCCN(CCCOC(=O)c3cc(OC)c(OC)c(OC)c3)CC2)cc(OC)c1OC`, the maximal number is inactive: 1.

`COc1c(O)cccc1O`: the maximal number was inactive: 1.

Take `CC(=O)/C(=C\c1ccccc1)CC(=O)O`: the maximal number was inactive: 1.

For the compound `CC(C)CCC[C@@H](C)[C@H]1CC[C@H]2[C@@H]3CC=C4CC(=O)CC[C@]4(C)[C@H]3CC[C@]12C`, the maximal number was inactive: 1.

Turning to `N[C@@H](Cc1ccc(O)c(O)c1)C(=O)O`, the maximal number was inactive: 1.

Take `COC(=O)c1c(OC)cc2c(c1C)Oc1c(Cl)c(O)c(Cl)c(C)c1C(=O)O2`: the maximal number was inactive: 1.

In the case of `O=C1c2c(O)cccc2C([C@@H]2O[C@H](CO)[C@@H](O)[C@H](O)[C@H]2O)c2cc(CO)cc(O)c21` (some centres not stated), the maximal number is inactive: 1.

Regarding `CCN1CCN(c2cc3c(cc2F)c(=O)c(C(=O)O)cn3C2CC2)CC1`, the maximal number is inactive: 0.

Turning to `O=C(O)C1(C(=O)O)CCC1.[NH2-].[NH2-].[Pt+2]`, the maximal number was inactive: 1.

For the compound `C[C@]12CC[C@@H](O)C[C@H]1CCc1ccccc12` [3alpha-HYDROXY-4,4-BISNOR-8,11,13-PODOCARPATRIENE], the maximal number is inactive: 0.

As to `O=C(NCC(O)CO)c1c(I)c(C(=O)NCC(O)CO)c(I)c(N(CCO)C(=O)CO)c1I` (configuration not stated), the maximal number is inactive: 0.5.

For the compound `CCN1CCCC1CNC(=O)c1cc(S(=O)(=O)CC)c(N)cc1OC` (configuration not stated), the maximal number is inactive: 1.

For `CC(=O)O[C@H]1CC[C@]2(C)C(C[C@@H](OC(C)=O)[C@]3(C)C4=CC(=O)O[C@H](c5ccoc5)[C@@]4(C)CCC23)C1(C)C` (stereo partly drawn) [3-DEOXO-3beta-ACETOXYDEOXYDIHYDROGEDUNIN], the maximal number was inactive: 1.

As for `CC(C)Cn1cnc2c(N)nc3ccccc3c21`, the maximal number was inactive: 1.

`COc1cc2c(cc1OC)C1C(=O)c3c(O)cc4c(c3OC1CO2)C=CC(C)(C)O4` (stereo not drawn) [alpha-TOXICAROL (dl)]: the maximal number is inactive: 1.

As to `CC(=O)O[C@H]1CC[C@@]2(C)[C@@H](CC[C@@H]3[C@@H]2CC(=O)[C@]2(C)[C@@H]4[C@H](C[C@@H]32)O[C@]2(CC[C@@H](C)CO2)[C@H]4C)C1`, the maximal number was inactive: 1.

Turning to `COc1ccc2c(=O)ccoc2c1`, the maximal number was inactive: 1.

Regarding `C#CCN[C@@H]1CCc2ccccc21`, the maximal number was inactive: 1.

`O=c1c(O)c(-c2ccccc2)oc2ccccc12`: the maximal number was inactive: 1.

`C=C1c2c(Cl)ccc(O)c2C(=O)C2=C(O)[C@]3(O)C(=O)C(C(N)=O)=C(O)[C@@H](N(C)C)[C@@H]3[C@@H](O)[C@H]12.O=C(O)c1cc(S(=O)(=O)O)ccc1O`: the maximal number was inactive: 1.

In the case of `O=C(O)c1cccnc1C(=O)O`, the maximal number was inactive: 1.

In the case of `Nc1nc(Cl)nc2c1ncn2[C@@H]1O[C@H](CO)[C@@H](O)[C@@H]1F`, the maximal number was inactive: 0.

With `CC(=O)CC(c1ccc([N+](=O)[O-])cc1)c1c(O)c2ccccc2oc1=O` (configuration not stated), the maximal number was inactive: 1.

Consider `CN1C2CCCC1CC(NC(=O)c1nn(C)c3ccccc13)C2` (configuration not stated), for which the maximal number is inactive: 1.

As for `C=C[C@@]1(C)CC(=O)[C@@]2(O)[C@](C)(O1)[C@@H](O)[C@@H](O)C1C(C)(C)CC[C@H](O)[C@@]12C` (some centres not stated), the maximal number is inactive: 1.

In the case of `CC(=O)N(CC(O)CN(C(C)=O)c1c(I)c(C(=O)NCC(O)CO)c(I)c(C(=O)NCC(O)CO)c1I)c1c(I)c(C(=O)NCC(O)CO)c(I)c(C(=O)NCC(O)CO)c1I` (configuration not stated), the maximal number was inactive: 1.

Take `Cn1nnc2c(C(N)=O)ncn2c1=O`: the maximal number was inactive: 1.

In the case of `COC(=O)Oc1ccccc1C(=O)O`, the maximal number was inactive: 1.

Take `CCCCCOC(=O)Nc1nc(=O)n([C@@H]2O[C@H](C)[C@@H](O)[C@H]2O)cc1F`: the maximal number is inactive: 1.

With `CCOc1ccc(C(=O)c2ccc(OC)c(O)c2O)cc1`, the maximal number was inactive: 0.

`NCCC[C@H](N)C(=O)O`: the maximal number is inactive: 1.

With `COc1ccc(-c2oc3cc(O[C@@H]4O[C@H](CO)[C@@H](O)[C@H](O)[C@H]4O)c(OC)c(O)c3c(=O)c2OC)cc1O`, the maximal number is inactive: 1.

Turning to `COc1ccc(/C=C/C(=O)Nc2ccccc2C(=O)O)cc1OC`, the maximal number was inactive: 1.

Regarding `N#CC(c1ccc(Cl)cc1)c1c(Cl)cc(-n2ncc(=O)[nH]c2=O)cc1Cl` (configuration not stated), the maximal number is inactive: 1.

As to `COC(=O)Nc1nc2cc(C(=O)c3ccccc3)ccc2[nH]1`, the maximal number was inactive: 1.

On to `CC(=O)Oc1ccc2c(c1OC(C)=O)OCC1(O)Cc3c(cc(OC(C)=O)c(OC(C)=O)c3OC(C)=O)C21` (configuration not stated), for which the maximal number is inactive: 1.

Take `Cc1nc(Nc2ncc(C(=O)Nc3c(C)cccc3Cl)s2)cc(N2CCN(CCO)CC2)n1`: the maximal number was inactive: 1.
